Laboratory results taken from US8680133B2, “Alkyl indole-3-carbinol-derived antitumor agents” (The Ohio State University Research Foundation, priority 2009, dated 2014).

What was measured:
Format in all cases: cell-based, human
OVCAR-3 = assay: NCI60 screening, Ovarian Cancer, OVCAR-3
SF-268 = assay: NCI60 screening, CNS Cancer, SF-268
CAKI-1 = assay: NCI60 screening, Renal Cancer, CAKI-1
PC-3 = assay: NCI60 screening, Prostate Cancer, PC-3
U0-31 = assay: NCI60 screening, Renal Cancer, U0-31
M14 = assay: NCI60 screening, Melanoma, M14
NCI-H460 = assay: NCI60 screening, Non-Small Cell Lung Cancer, NCI-H460
IGROV1 = assay: NCI60 screening, Ovarian Cancer, IGROV1
NCI-H226 = assay: NCI60 screening, Non-Small Cell Lung Cancer, NCI-H226
NCl/ADR-RES = assay: NCI60 screening, Ovarian Cancer, NCl/ADR-RES
DU-145 = assay: NCI60 screening, Prostate Cancer, DU-145
HOP-92 = assay: NCI60 screening, Non-Small Cell Lung Cancer, HOP-92
RXF 393 = assay: NCI60 screening, Renal Cancer, RXF 393
T-47D = assay: NCI60 screening, Breast Cancer, T-47D
RPMl-8226 = assay: NCI60 screening, Leukemia, RPMl-8226
HCT-116 = assay: NCI60 screening, Colon Cancer, HCT-116
HOP-62 = assay: NCI60 screening, Non-Small Cell Lung Cancer, HOP-62

SMILES: Cc1ccc2c(c1)c(CO)cn2S(=O)(=O)c1ccc(Cl)c([N+](=O)[O-])c1 [OSU-A9M, [1-(4-chloro-3-nitro-benzenesulfonyl)-5-methyl-1H-indol-3-yl]-methanol]
- Mean Optical Densities (OVCAR-3; Log10 Concentration −4.0): −0.020
- Mean Optical Densities (OVCAR-3; Log10 Concentration −5.0): −0.013
- Mean Optical Densities (OVCAR-3; Log10 Concentration −6.0): 0.092
- Mean Optical Densities (OVCAR-3; Log10 Concentration −7.0): 0.492
- Mean Optical Densities (OVCAR-3; Log10 Concentration −8.0): 0.485
- Mean Optical Densities (SF-268; Log10 Concentration −4.0): −0.007
- Mean Optical Densities (SF-268; Log10 Concentration −5.0): −0.003
- Mean Optical Densities (SF-268; Log10 Concentration −6.0): 1.039
- Mean Optical Densities (SF-268; Log10 Concentration −7.0): 1.022
- Mean Optical Densities (SF-268; Log10 Concentration −8.0): 0.995
- Mean Optical Densities (CAKI-1; Log10 Concentration −4.0): 0.028
- Mean Optical Densities (CAKI-1; Log10 Concentration −5.0): 0.046
- Mean Optical Densities (CAKI-1; Log10 Concentration −6.0): 1.588
- Mean Optical Densities (CAKI-1; Log10 Concentration −7.0): 1.796
- Mean Optical Densities (CAKI-1; Log10 Concentration −8.0): 1.759
- Mean Optical Densities (PC-3; Log10 Concentration −4.0): 0.041
- Mean Optical Densities (PC-3; Log10 Concentration −5.0): 0.335
- Mean Optical Densities (PC-3; Log10 Concentration −6.0): 0.971
- Mean Optical Densities (PC-3; Log10 Concentration −7.0): 0.970
- Mean Optical Densities (PC-3; Log10 Concentration −8.0): 1.000
- Mean Optical Densities (U0-31; Log10 Concentration −4.0): −0.017
- Mean Optical Densities (U0-31; Log10 Concentration −5.0): 0.080
- Mean Optical Densities (U0-31; Log10 Concentration −6.0): 1.405
- Mean Optical Densities (U0-31; Log10 Concentration −7.0): 1.413
- Mean Optical Densities (U0-31; Log10 Concentration −8.0): 1.310
- Mean Optical Densities (M14; Log10 Concentration −4.0): 0.002
- Mean Optical Densities (M14; Log10 Concentration −5.0): 0.009
- Mean Optical Densities (M14; Log10 Concentration −6.0): 1.111
- Mean Optical Densities (M14; Log10 Concentration −7.0): 1.218
- Mean Optical Densities (M14; Log10 Concentration −8.0): 1.205
- Mean Optical Densities (NCI-H460; Log10 Concentration −4.0): 0.017
- Mean Optical Densities (NCI-H460; Log10 Concentration −5.0): 0.016
- Mean Optical Densities (NCI-H460; Log10 Concentration −6.0): 1.304
- Mean Optical Densities (NCI-H460; Log10 Concentration −7.0): 1.301
- Mean Optical Densities (NCI-H460; Log10 Concentration −8.0): 1.259
- Mean Optical Densities (IGROV1; Log10 Concentration −4.0): −0.009
- Mean Optical Densities (IGROV1; Log10 Concentration −5.0): −0.032
- Mean Optical Densities (IGROV1; Log10 Concentration −6.0): 0.196
- Mean Optical Densities (IGROV1; Log10 Concentration −7.0): 0.481
- Mean Optical Densities (IGROV1; Log10 Concentration −8.0): 0.444
- Mean Optical Densities (NCI-H226; Log10 Concentration −4.0): 0.301
- Mean Optical Densities (NCI-H226; Log10 Concentration −5.0): 0.478
- Mean Optical Densities (NCI-H226; Log10 Concentration −6.0): 1.311
- Mean Optical Densities (NCI-H226; Log10 Concentration −7.0): 1.704
- Mean Optical Densities (NCI-H226; Log10 Concentration −8.0): 1.689
- Mean Optical Densities (NCl/ADR-RES; Log10 Concentration −4.0): 0.028
- Mean Optical Densities (NCl/ADR-RES; Log10 Concentration −5.0): 0.034
- Mean Optical Densities (NCl/ADR-RES; Log10 Concentration −6.0): 1.070
- Mean Optical Densities (NCl/ADR-RES; Log10 Concentration −7.0): 1.092
- Mean Optical Densities (NCl/ADR-RES; Log10 Concentration −8.0): 1.048
- Mean Optical Densities (DU-145; Log10 Concentration −4.0): −0.027
- Mean Optical Densities (DU-145; Log10 Concentration −5.0): −0.024
- Mean Optical Densities (DU-145; Log10 Concentration −6.0): 1.006
- Mean Optical Densities (DU-145; Log10 Concentration −7.0): 1.018
- Mean Optical Densities (DU-145; Log10 Concentration −8.0): 1.078
- Mean Optical Densities (HOP-92; Log10 Concentration −4.0): 0.029
- Mean Optical Densities (HOP-92; Log10 Concentration −5.0): 0.068
- Mean Optical Densities (HOP-92; Log10 Concentration −6.0): 1.276
- Mean Optical Densities (HOP-92; Log10 Concentration −7.0): 1.310
- Mean Optical Densities (HOP-92; Log10 Concentration −8.0): 1.383
- Mean Optical Densities (RXF 393; Log10 Concentration −4.0): 0.056
- Mean Optical Densities (RXF 393; Log10 Concentration −5.0): 0.149
- Mean Optical Densities (RXF 393; Log10 Concentration −6.0): 1.512
- Mean Optical Densities (RXF 393; Log10 Concentration −7.0): 1.608
- Mean Optical Densities (RXF 393; Log10 Concentration −8.0): 1.589
- Mean Optical Densities (T-47D; Log10 Concentration −4.0): 0.145
- Mean Optical Densities (T-47D; Log10 Concentration −5.0): 0.129
- Mean Optical Densities (T-47D; Log10 Concentration −6.0): 0.547
- Mean Optical Densities (T-47D; Log10 Concentration −7.0): 0.664
- Mean Optical Densities (T-47D; Log10 Concentration −8.0): 0.670
- Mean Optical Densities (RPMl-8226; Log10 Concentration −4.0): 0.288
- Mean Optical Densities (RPMl-8226; Log10 Concentration −5.0): 0.400
- Mean Optical Densities (RPMl-8226; Log10 Concentration −6.0): 1.985
- Mean Optical Densities (RPMl-8226; Log10 Concentration −7.0): 2.108
- Mean Optical Densities (RPMl-8226; Log10 Concentration −8.0): 2.226
- Mean Optical Densities (HCT-116; Log10 Concentration −4.0): −0.005
- Mean Optical Densities (HCT-116; Log10 Concentration −5.0): −0.004
- Mean Optical Densities (HCT-116; Log10 Concentration −6.0): 0.295
- Mean Optical Densities (HCT-116; Log10 Concentration −7.0): 0.805
- Mean Optical Densities (HCT-116; Log10 Concentration −8.0): 0.809
- Mean Optical Densities (HOP-62; Log10 Concentration −4.0): 0.003
- Mean Optical Densities (HOP-62; Log10 Concentration −5.0): −0.005
